Measurements published in US10610487B2, “Salts of active ingredients with polymeric counterions” (BASF SE, priority 2015, dated 2020).
In brackets after ≈: the same amount, converted by molar mass.

Assay: physchem
Details: thermodynamic from solid

Work on `C(=C\c1ccccc1)/CN1CCN(C(c2ccccc2)c2ccccc2)CC1` [Cinnarizine, cinnarizine] yielded a solubility thermodynamic at 72 h (simulated gastric fluid) of 2100 µg/mL (≈ 5700 µM) and a solubility thermodynamic at 72 h (water) of 0.9 µg/mL (≈ 2.44 µM).
